From a melanoma drug combination screen (doi:10.1371/journal.pone.0140310); values rounded.

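Human melanoma cells were exposed to a pair of drugs for 72 h in 1,536-well plates and read by automated microscopy after fixing and staining. Values are the share of nuclei positive for cleaved PARP as a percentage of the same share in the DMSO control: 100 is the control level, higher means more apoptosis. Concentrations were fixed for each drug; these are the higher of two levels. No replicate spread is given; individual values may be noisy. The marker varies much from line to line, for technical or biological reasons.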
Only some of the drugs and lines screened are listed, without regard to their results.
A dash means that no value is listed here.

Drug key:
vatalanib: Clc1ccc(Nc2nnc(Cc3ccncc3)c3ccccc23)cc1 at 10000 nM
embelin: CCCCCCCCCCCC1=C(O)C(=O)C=C(O)C1=O at 6000 nM
PD173074: CCN(CC)CCCCNc1ncc2cc(-c3cc(OC)cc(OC)c3)c(NC(=O)NC(C)(C)C)nc2n1 at 500 nM
everolimus: CO[C@H]1C[C@@H]2CC[C@@H](C)[C@@](O)(O2)C(=O)C(=O)N2CCCC[C@H]2C(=O)O[C@H]([C@H](C)C[C@@H]2CC[C@@H](OCCO)[C@H](OC)C2)CC(=O)[C@H](C)/C=C(\C)[C@@H](O)[C@@H](OC)C(=O)[C@H](C)C[C@H](C)/C=C/C=C/C=C/1C at 100 nM
bexarotene: C=C(c1ccc(C(=O)O)cc1)c1cc2c(cc1C)C(C)(C)CCC2(C)C at 10000 nM
vorinostat: O=C(CCCCCCC(=O)Nc1ccccc1)NO at 400 nM
XAV939: Oc1nc(-c2ccc(C(F)(F)F)cc2)nc2c1CSCC2 at 10000 nM
tozasertib: Cc1cc(Nc2cc(N3CCN(C)CC3)nc(Sc3ccc(NC(=O)C4CC4)cc3)n2)n[nH]1 at 30 nM
lapatinib: CS(=O)(=O)CCNCc1ccc(-c2ccc3ncnc(Nc4ccc(OCc5cccc(F)c5)c(Cl)c4)c3c2)o1 at 4000 nM
cisplatin: N.N.[Cl][Pt][Cl] at 8000 nM

| Drugs | C32 | WM1745 | A375 | WM3619 | 501mel |
|---|---|---|---|---|---|
| lapatinib + everolimus | 264 | 107 | 191 | 165 | - |
| PD173074 + tozasertib | 87.8 | - | 58.9 | 133 | 94.7 |
| bexarotene + PD173074 | 67.7 | - | 34.5 | 96.1 | 186 |
| embelin + XAV939 | 107 | 149 | 75.8 | 96.4 | 133 |
| lapatinib + PD173074 | 87.1 | - | 94.4 | 147 | 161 |
| lapatinib + tozasertib | 423 | 179 | 36.9 | 127 | - |
| everolimus + tozasertib | 216 | 153 | 104 | 135 | - |
| vatalanib + lapatinib | 722 | 136 | 156 | 147 | - |
| everolimus + PD173074 | 81.6 | - | 120 | 124 | 321 |
| cisplatin + bexarotene | 154 | 77.7 | 382 | 80.2 | - |
| XAV939 + tozasertib | 86.1 | - | 136 | 163 | 242 |
| embelin + lapatinib | 164 | - | 35.9 | 174 | 116 |
| vorinostat + lapatinib | 76.7 | 102 | - | 160 | - |
| vorinostat + vatalanib | 99.7 | 291 | - | 154 | - |
| cisplatin + vatalanib | 180 | 128 | 135 | 103 | - |
| everolimus + cisplatin | 263 | 75.6 | 167 | 134 | - |
| PD173074 + XAV939 | 87.0 | 140 | 116 | 103 | 88.4 |
| cisplatin + PD173074 | 148 | - | 158 | 94.3 | - |
| embelin + vorinostat | 87.6 | 131 | 50.9 | 141 | 129 |
| bexarotene + everolimus | 557 | 179 | 204 | 111 | - |
| embelin + tozasertib | 94.5 | - | 58.2 | 116 | 191 |
| vorinostat + cisplatin | 172 | 138 | - | 147 | - |
| vatalanib + embelin | 98.3 | - | 116 | 183 | 189 |
| embelin + cisplatin | 81.0 | - | 326 | 98.9 | 72.0 |
| vorinostat + tozasertib | 361 | 414 | - | 127 | - |
| XAV939 + bexarotene | 62.8 | - | 50.5 | 127 | 82.4 |
| cisplatin + XAV939 | 83.7 | - | 337 | 128 | 126 |
| PD173074 + vatalanib | 102 | - | 108 | 187 | 62.8 |
| bexarotene + vorinostat | 35.3 | 105 | - | 120 | - |
| tozasertib + cisplatin | 120 | 111 | 93.1 | 85.8 | - |
| embelin + bexarotene | 82.1 | - | 57.6 | 96.5 | 38.2 |
| XAV939 + everolimus | 92.8 | - | 220 | 92.3 | 72.8 |
| XAV939 + vatalanib | 110 | - | 65.9 | 120 | 151 |
| XAV939 + vorinostat | 103 | 169 | 37.5 | 171 | 199 |
| tozasertib + bexarotene | 118 | 125 | 51.0 | 87.9 | - |
| bexarotene + lapatinib | 190 | 98.3 | 112 | 158 | - |
| vatalanib + tozasertib | 188 | 140 | 38.7 | 126 | - |
| everolimus + embelin | 94.7 | - | 55.8 | 107 | 224 |

For reference, 3 entries once more:

Drugs	C32	WM1745	A375	WM3619	501mel
everolimus + tozasertib	216	153	104	135	-
PD173074 + XAV939	87.0	140	116	103	88.4
XAV939 + vatalanib	110	-	65.9	120	151